Results as given in PubChem BioAssay AID2685 (National Center for Advancing Translational Sciences (NCATS), 2010).
Screen size: about 320,000 compounds; about 2,100 (0.66%) were called active. The shares of active, inactive and inconclusive entries below differ from those in the screen. Calls follow the shape of the dose curve; as a rule, active = well fitted inhibition curve with a large enough effect in the signal ratio, with a control signal flat (not every such curve was filed as active); inconclusive = small, poorly fitted or top-dose-only effect, or effect the other way, or a change in a side signal; inactive = flat fitted curve, though single readings scatter; the % refers to the signal ratio. Potencies of inconclusive entries are doubtful fits and often do not repeat.

Experiment: qHTS Assay for Lipid Storage Modulators in Drosophila S3 Cells
Conditions: BODIPY lipid droplet fluorescence, 18-24 h, cells fed with added oleic acid; lipid storage change, negative = inhibition: at 46.1 µM (top of the series) unless noted
Outline: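 Drosophila S3 cells loaded with oleic acid (400 uM, as added) and compounds at several concentrations; lipid droplets imaged by 488-nm laser-scanning cytometry, 500–530 nm intensity and object ratio to cell channel. Percent activity normalized to 20 uM Triacsin C.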
% is scaled to controls: 0 for no effect and ±100 for the full control effect; potency is read from the fitted curve at half-maximal effect.

| Compound | lipid storage change, negative = inhibition | Potency | outcome |
| --- | --- | --- | --- |
| CC(OC(=O)CNC(=O)c1ccco1)C(=O)N(C)c1ccccc1 (configuration not stated) | inconclusive: 10.2% |  |  |
| O=C(Cn1cnc2scc(-c3ccccc3)c2c1=O)NCc1ccco1 | inconclusive: -33.9% |  |  |
| O=C(O)c1ccc(/C=N/Nc2ncc(C(F)(F)F)cc2Cl)cc1 | inactive: -8.43% |  |  |
| CCCCCC(=O)Nc1cccc(-c2nc3ncccc3o2)c1 | inconclusive: 23.5% |  |  |
| CCc1ccc(NC(=S)N2CCCCCCC2)cc1 | inconclusive: -11.9% |  |  |
| Cc1noc(C)c1C(=O)N1CCc2ccccc21 |  | inconclusive: 0.651 µM [falling, single point] |  |
| O=C(NNc1c(Cl)cc(Cl)cc1Cl)C1CCC1 |  | inconclusive: 29.1 µM [activator, single point] |  |
| COc1ccc(N2C(=O)NC3CC2(C)Oc2ccc(Cl)cc23)cc1OC (configuration not stated) | inconclusive: -2.79% |  |  |
| CN=C(NC1CCCCC1)c1ccc([N+](=O)[O-])cc1 | inconclusive: 19.4% |  |  |
| COc1ccc(C(=O)NC(C)C2CC3CCC2C3)c(OC)c1 (configuration not stated) |  |  | inactive [at 46.1 µM] |
| CC(=O)Nc1ccc(NC(=S)Nc2ccc(F)cc2)cc1 | inconclusive: 5.11% |  |  |
| CC1CN(C(=O)CCNS(=O)(=O)c2ccc(Br)cc2)CC(C)O1 (configuration not stated) |  | inconclusive: 0.411 µM [activator, single point] |  |
| O=C(O)CSc1ccc(S(=O)(=O)N2CCCC2)cn1 | inconclusive: 5.1% |  |  |
| CCn1c2ccccc2c2cc(N=C3SC(CC(=O)Nc4ccccc4OC)C(=O)N3C)ccc21 (configuration not stated) | inactive: 3.11% |  |  |
| COc1cc(C(=O)N/C(=C\c2cn(C)c3ccccc23)C(=O)N2CCN(C)CC2)cc(OC)c1OC | inconclusive: 9.38% |  |  |
| CC(C)n1c(O)c(N=Nc2ccc(Cl)c(C(=O)O)c2)c2ccccc21 | inconclusive: 11.9% |  |  |
| O=C(Nc1cccc(S(=O)(=O)N2CCOCC2)c1)c1cccc(S(=O)(=O)N2CCCCC2)c1 | inconclusive |  |  |
| O=C(CN1C(=O)c2cccc3cccc(c23)C1=O)N1CCN(c2ccccn2)CC1 |  | inconclusive: 0.731 µM [activator, single point] |  |
| Cc1cccc(OCC(=O)Nc2ccccc2N2CCN(C(=O)C(C)C)CC2)c1C |  | inconclusive: 6.51 µM [rising, single point] |  |
| C=CCNC(=S)NNC(=O)c1cc(C)nc2ccccc12 | inconclusive: 11.5% |  |  |
| COc1ccc(N2CCN(C(=O)Nc3cccc(C(F)(F)F)c3)CC2)cc1 |  | inconclusive: 5.8 µM [activator, single point] |  |
| Cc1ccc(N=N/C(=C\O)C(=O)c2ccc(Cl)cc2)cc1 | inconclusive: -99.4% |  |  |
| CC(Sc1nnnn1C)C(=O)Nc1ccccc1 (configuration not stated) | inconclusive: -56.2% |  |  |
| Cc1cc(NC(=O)c2sc(Nc3cccc(C(F)(F)F)c3)nc2N)no1 |  | inconclusive: 0.146 µM [activator, single point] |  |
| O=C(COC(=O)c1ccc(F)c(S(=O)(=O)N2CCOCC2)c1)NCCc1ccccc1 |  | inconclusive: 0.58 µM [activator, partial curve, poor fit] |  |
| CCOC(=O)CNC(=O)c1ccc(Cl)s1 | inconclusive: -18.6% [at 9.22 µM] |  |  |

Single values from above:
Cc1cc(NC(=O)c2sc(Nc3cccc(C(F)(F)F)c3)nc2N)no1 – Potency: inconclusive: 0.146 µM [activator, single point]
O=C(Cn1cnc2scc(-c3ccccc3)c2c1=O)NCc1ccco1 – lipid storage change, negative = inhibition: inconclusive: -33.9%

The listing continues.

| Compound | lipid storage change, negative = inhibition | Potency | outcome |
| --- | --- | --- | --- |
| CCNC(=O)C(=O)Nc1cc2c3c(c1)CCN3C(=O)CC2 |  | active: 6.51 µM |  |
| Cc1cc(C)c2c(n1)SCC(=O)N2CC(=O)Nc1ccc(Br)c(C)c1 |  | inconclusive: 20.6 µM [activator, partial curve] |  |
| C/C(=N/O)c1ccccn1 | inconclusive: 4.5% |  |  |
| COc1ccc(C)cc1NS(=O)(=O)c1cccc2nonc12 |  | inconclusive: 29.1 µM [activator, single point] |  |
| Cc1ccc(C(=O)NNC(=O)C2CC2)cc1Br |  | inconclusive: 6.51 µM [activator, single point] |  |
| Cc1cccc(NC(=O)CSc2nc(=O)n3ccccc3n2)c1C | inconclusive: 29.6% |  |  |
| Cc1ccc2oc(-c3cccc(NC(=O)Cn4cnc5c(=O)n(C)c(=O)n(C)c54)c3)nc2c1 | inconclusive: -13.9% |  |  |
| Cc1ccccc1C(=O)NCCOc1ccccc1Cl | inconclusive: -39.9% |  |  |
| COc1ccccc1C(CNC(=O)c1oc2ccccc2c1C)N1CCCC1 (configuration not stated) | inconclusive: 11.6% |  |  |
| COc1ccc(NC(=O)CN2C(=O)NC3(CCCC3)C2=O)c(OC)c1 |  |  | inactive [at 46.1 µM] |
| O=C(COc1ccc(-c2ccccc2)cc1)NN=C1CCCC1 | inconclusive: -73.4% [cytotoxic] [at 0.00295 µM] |  |  |
| COCCCn1c(SCC(=O)NC2CCCC2)nnc1-c1ccncc1 | inconclusive: -12.7% |  |  |
| COc1ccc(C)cc1-n1nnnc1SCc1csc(C)n1 | inconclusive: 24.4% |  |  |
| O=C1c2oc3ccccc3c(=O)c2C(c2cccc(O)c2)N1c1ccccn1 (configuration not stated) |  | inconclusive: 6.51 µM [rising, single point] |  |
| Cc1cc(C)c(NC(=O)C2CC(=O)N(Cc3ccccc3)C2)c(C)c1 (configuration not stated) | inconclusive: 22.4% |  |  |
| CCN(CC(=O)Nc1c(F)cccc1F)C(=O)CSc1ccc(F)cc1 | inconclusive |  |  |
| CCOc1ccc2nc(SCC(=O)N3CCCc4ccccc43)sc2c1 |  | inconclusive: 20.6 µM [falling, single point] |  |
| CCN(C(=O)CSc1ncn[nH]1)c1c(N)n(Cc2ccccc2)c(=O)[nH]c1=O | inconclusive |  |  |
| O=c1nc(-c2ccccc2Cl)c2cc(F)ccc2[nH]1 | inconclusive: 36.6% |  |  |
| COc1ccc(CN(C(=O)c2ccccc2Br)C2CCS(=O)(=O)C2)cc1 (configuration not stated) | inconclusive: -5.24% |  |  |
| Cc1cc(C)c(C)c(OCCOCCN2CCN(C)CC2)c1 | inconclusive: -0.123% |  |  |
| CNC(=O)c1c(NC(=O)c2cccc(C)c2)sc2c1CCC2 |  | inconclusive: 2.91 µM [falling, single point] |  |
| O=C1NC(Cc2c[nH]c3ccccc23)C(=O)N1Cc1cccc2ccccc12 (configuration not stated) | inconclusive: 19.3% |  |  |
| Cc1ccc(NC(=O)CSc2nncs2)cc1Cl |  | inconclusive: 0.461 µM [falling, full curve] |  |
| CC1(C)CC(CC(=O)O)(c2ccc(Cl)cc2)CCO1 (configuration not stated) | inconclusive: 1.06% |  |  |
| CCCc1cc(C(=O)Nc2ccc(CC)cc2)no1 | inconclusive: 69.8% |  |  |
